According to patent US9702865B2, “System and method for high-content oncology assay” (RIGEL PHARMACEUTICALS, INC., priority 2002, dated 2017):
Some entries share one result that the patent states for a list of compounds.

System: A549 cells
Assay: cell cycle assay (NB vs SD, cell cycle analysis module)
Assay type: cell-based
Conditions: synchronous A549 cells (double thymidine), DAPI stained, FIG. 8

SMILES: CC(=O)O[C@H]1C(=O)[C@@]2(C)[C@H]([C@H](OC(=O)c3ccccc3)[C@]3(O)C[C@H](OC(=O)[C@H](O)[C@@H](NC(=O)c4ccccc4)c4ccccc4)C(C)=C1C3(C)C)[C@]1(OC(C)=O)CO[C@@H]1C[C@@H]2O [taxol]
- concentration at which cells are arrested in the G2 phase: ≤ 3 µM

SMILES: COc1cc([C@@H]2c3cc4c(cc3[C@@H](O[C@@H]3O[C@@H]5CO[C@@H](C)O[C@H]5[C@H](O)[C@H]3O)[C@H]3COC(=O)[C@H]23)OCO4)cc(OC)c1O [etoposide]
- concentration at which cells are arrested in the G2 phase: ≤ 3 µM
